# Measured values as given in PubChem BioAssay AID1508600 (Functional Genomics Laboratory (NCATS/FGL), 2020).
# The whole screen tested about 53,000 sequences, of which about 3,700 (7%) were called active.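 The calls were made as follows: active = gene knockdowns whose robust z-score for IL-1 alpha signal is at least 2 or at most -2, so actives lie on both sides; inactive = the rest.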 The list shows a part of the results.
# Experiment: Components of the Cytosolic LPS Sensing Pathway: Gene Identification via Genome-wide siRNA Screen;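 also: robust z of the log signal after scaling to non-targeting control siRNA wells of the plate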
# Details: RAW264.7 macrophages, IL-1a HTRF, actives lie on both sides, screened at 100 nM (by protocol), cells primed 5 h with Pam3CSK4 first
# How it was run: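 Three distinct siRNAs per gene were tested singly at 100 nM in RAW264.7 macrophages. Following Pam3CSK4 priming and 24 hour LipidA transfection, IL-1a secretion was read by HTRF.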
row,Sequence,z-score
1,GCAUGCGUCAAUUUCUAAATT against Cdon,inactive: 0.299
2,GCAGGCUAGGAACAGUUAATT against Gpr61,inactive: -0.101
3,GGCUGACUUCGUUUUCAUGTT against Derl3,active: -2.01
4,GCUUCUAUACUGAUUAUGATT against Aldh6a1,inactive: -0.676
5,GGAACUGGGAGACCUAUAATT against Angptl2,active: -2.01
6,GCAAUCAACUGUCUGUUUUTT against Cyp2b9,inactive: 0.296
7,GGGAACAGGCUUGUUGUCUTT against Treml1,inactive: 0.613
8,GGGACUGGAUCCUUGAUAUTT against Ebi3,inactive: 0.677
9,CCAGUUCUAAGCAAAUUGATT against Cyp4v3,inactive: -0.26
10,GGCUUAUUCUCUGGUAUUUTT against Mpv17l,inactive: -1.68
11,GGCCAGAGUAGCAACUGUATT against AY074887,inactive: -0.235
12,GGCUGAAUCGGCAUUUCCATT against Klhdc3,inactive: -0.184
13,GGAGCUAGAGGUAGACCGUTT against D11Wsu47e,inactive: 0.289
14,GGUUUUCUGAAAUUGAGGATT against Uqcc1,inactive: -0.501
15,GGAGGCAGUCCUGUGUACATT against Paqr4,inactive: 0.855
16,GCCACCUCAAAACAUAUCATT against Il12rb2,inactive: -0.995
17,GGCAUUGGAAGAUGCACAGTT against Scp2,inactive: 0.431
18,GGCAAAAUUGGAAAGAGAATT against Gopc,inactive: -0.969
19,GGUACCGGCUGGAAAAUGATT against Inpp5b,inactive: 1.15
20,GGACAGUUUGAUGAUGCCGTT against Coprs,active: -2.87
21,GGAAUCAACUGAUACUUAATT against Aldh1l2,inactive: 0.755
22,CGCCAGCUCUGAAUCCUUUTT against Olfr693,inactive: 0.601

# An excerpt of these results, as tab-separated lines:
row	Sequence	z-score
10	GGCUUAUUCUCUGGUAUUUTT against Mpv17l	inactive: -1.68
18	GGCAAAAUUGGAAAGAGAATT against Gopc	inactive: -0.969

# (next part)

row,Sequence,z-score
1,GGAUGCUAAAAAUGCGGGATT against Cyp2d34,inactive: 1.04
2,GGAGGUUGAGGCAUUUAAATT against Ogfr,inactive: 0.658
3,GGGCUAGGAGAAACUCCUCTT against 0610010K14Rik,inactive: -1.59
4,GUCCUACGUGCUUAGCUACTT against Endog,inactive: 0.324
5,GGCUAUGAACUCUUAUUUCTT against Ctnnd1,inactive: 0.785
6,GGUGGAAACAGUUGUUAUGTT against Jag2,inactive: 1.12
7,GCAUUUCCUAUAAUCGUUGTT against Olfr360,inactive: 0.371
8,GGGCUUCACAAUCCCAUGUTT against Olfr539,inactive: -1.74
9,GGAAACAUCCAAGAAAAAUTT against Ap1s2,inactive: -0.489
10,CGUGCUAGUCAACACCUCCTT against Cnnm4,inactive: -0.316
11,GGACAUCCUGGCUUUCUACTT against Insm1,inactive: -0.114
12,GCUCUUAAGAGUCACCAAGTT against Mettl27,inactive: 0.019
13,CCAAACGAAGGAAGCUGACTT against Taf6l,active: -2.09
14,GGGUUUUUUUUUUCCUUCCTT against Hsd17b1,inactive: -0.0306
15,GGCUCUAUGGAAGUUCUUATT against Kcnh8,inactive: 0.576
16,CCAAUUGGAAGAAUCCAGGTT against Gsdmc3,inactive: -0.542
17,GGUCAUUUGUUUUCAGGGATT against Tfdp2,active: 3.07
18,CGGUCAGAUGUACGAAACCTT against Crygs,inactive: -0.36
19,CCUACACUAGAAUCCUGAATT against Olfr613,inactive: 0.209
20,GGUACUACUGUGGCUAAGCTT against 1700120K04Rik,active: 2.71
21,GGCCAAGCAUGUUUUGUCATT against Cep72,inactive: -0.639
22,GGUUCUUAAAUCAGCAUUGTT against Dnm3,inactive: -0.511

row,Sequence,z-score
1,GGCAACCAUCAAUCUAUUUTT against 5930422O12Rik,inactive: 1.62
2,GGCGCACAAAGCUGUUCUUTT against Zbtb43,inactive: -0.87
3,GGACAGAAUACGUGAGGAGTT against Septin5,inactive: -0.427
4,GGACCAUACAUAUUCAAAATT against Aph1b,inactive: 0.0294
5,GGAUUUGGAAAAUUGAUGCTT against Ahi1,inactive: 0.97
6,GGAGAUGCUGUACAAGCAGTT against Zfp212,inactive: 0.923
7,GCAAUGGGUGACAAUAGCATT against Vamp3,inactive: -0.426
8,GGACAGAUUCCGCAUUGAGTT against Mospd3,inactive: 0.0389
9,CGCAGUACCUAUUUGAGCGTT against Hs6st1,inactive: 1.62
10,GGUAGGGUGGACACAACUCTT against Gpsm3,inactive: -1.32
11,GGGCCAUUUCAGCUUUUCUTT against Mei1,inactive: -0.801
12,CCCGGAGAGUCAUUUGUGUTT against Cpsf4,inactive: 0.435
13,GGAUGAUUAUUGGAGCUAUTT against Vtn,inactive: 0.128
14,GCAAAGAUCCAAAUAUUGUTT against Pdia3,inactive: 0.615
15,GGUCAGAACUUGAUGCUGCTT against Fgr,inactive: 0.159
16,GGUUACGAGAGAUGUUUGGTT against Sar1b,inactive: 1.98
17,GGAAGUUCAGAUUUGCUACTT against Hes6,inactive: -0.231
18,GCCAUUCUCCAACAAUCGATT against Evc,inactive: -1.69
19,GCCGCCUGCUAUUUUUCCUTT against Lpcat4,inactive: 0.71
20,GGACGUGCUCAAGUUCAUCTT against Ift172,inactive: 0.519
21,GUGAUGGUUGAUGACCCACTT against H2-K1,inactive: 0.116
22,GGUGGUCUACUUCACCGCATT against Slc6a20a,inactive: 0.466

row,Sequence,z-score
1,GGGCAGAUCUAAAACCUUCTT against Olfr935,inactive: 0.848
2,GAUUACAGACAGUGGAAAATT against Ndufb3,inactive: 0.307
3,GGGAAAAUGUGGGAAUUUUTT against Ormdl1,inactive: 0.539
4,GGACUGAAGGGAGAUUUUUTT against Fstl3,inactive: -0.351
5,GCCUAUGACAUCUCCGUACTT against Alx3,inactive: 0.718
6,CCAAAUCCCAUCGAGUUCCTT against Dpy30,inactive: 0.678
7,GCUUGUGGACUACCAUAAGTT against Ptk6,inactive: -0.635
8,GAAGGACACCCUUAUAUUUTT against Olfr1216,inactive: 0.892
9,CCAAUUACGAGACUCUCAUTT against Zfp786,inactive: -0.00661
10,GGAUGUCUCCAUGAAGGAATT against Ccnb2,inactive: -1.12
11,GGCCAGAAAACAUGCUUUATT against Pbx1,inactive: 0.252
12,GAUCUAAGAAUGCCUGUGGTT against Lyz1,inactive: -1.72
13,GGAAGUGGCUAUGACAGAGTT against Atp1a3,inactive: -1.71
14,GGCAAAAAAAGGCUUUAUUTT against Nde1,inactive: -1.04
15,GGAGAAGAAAGAAAAGCUUTT against Nusap1,inactive: -1.74
16,UUAUAGGCCUAUUGGUACATT against Olfr1208,inactive: -0.185
17,GGAAAUGGACUGUUUAGGCTT against Fgf15,inactive: 0.00302
18,GGAGACCAUCCAAUUAUGATT against Naa35,inactive: -1.28
19,GGAGUUCUUCUGGACCUCATT against Ccl22,inactive: -1.31
20,GGAAGAACGCGUAGAUAAGTT against Anks1,inactive: 1.58
21,GGAAAACACCUACCUGUGGTT against Slc25a3,inactive: -1.48
22,GCAAUACCUUCUGACACAGTT against Eral1,inactive: -0.0869

# Random excerpt: 2 entries already listed, in no set order.
row,Sequence,z-score
9,CCAAUUACGAGACUCUCAUTT against Zfp786,inactive: -0.00661
11,GGCCAGAAAACAUGCUUUATT against Pbx1,inactive: 0.252

# More records follow:

row,Sequence,z-score
1,GCAUCAUGAUACGAAGCAGTT against Sfi1,inactive: -0.74
2,CCUCAUUCAAGAAACCUCATT against Comtd1,inactive: -1.13
3,GCAUCUUAACACAUGUAAATT against Zfp369,inactive: -0.834
4,GCUUUCCCUUAGGCACUUUTT against Anapc15,inactive: -0.33
5,GGUUUAUGAACUGACUUUGTT against Htt,inactive: 0.0107
6,GCUUGAUUUUUGACAGAGATT against Mdh1b,inactive: 1.48
7,GGUGCAAAGCUUGAAAAUGTT against Gpr150,inactive: -0.324
8,CCAAUUCACGUAUGACAAUTT against C3ar1,inactive: 0.3
9,GGCAGAAGACUUGGUGAUCTT against Ppm1m,inactive: 0.0651
10,CGGAAUGAGUCUGCUGGUCTT against Mrgprg,inactive: 0.884
11,GGAGAUCGUCUCUCUCAUCTT against Pcf11,inactive: 0.792
12,GCUGAAACUAGACAUUAAGTT against Taf11,inactive: 0.0932
13,GGAGAAUCCAAAGUAGAUCTT against Mycbp,inactive: 0.492
14,CGUGUGAGGUUUGUGAAAGTT against Gzmf,inactive: -0.346
15,GGACCUCGAUGAAACCAUCTT against Stx6,inactive: -0.8
16,GGGAUAAAAUUCUACCUAATT against Htr2b,inactive: 0.724
17,GGAAGUGUGGUGAAACUGUTT against Clec4d,inactive: -0.702
18,GGGUUGCCCAGAAUGUAAATT against Cga,inactive: 0.38
19,GGACGAGAACGAUAAUUACTT against Dsc2,inactive: 0.335
